Several values for one entry are separate records, joined by “and”; a condition that tells them apart may be missing. Identical values can stand only once. ± gives the standard deviation of the averaged measurements. Whole data set: some 3,800 compounds, median “cell shape (eccentricity) Z-score vs DMSO control” near 1.1, cut for the lowest 2% near -4.7. Some of the results follow.
What follows are compounds tested on human monocyte-derived macrophages (M0) (assay: cell shape (eccentricity) Z-score vs DMSO control; higher = more elongated, M2-like morphology). Conditions: 20 µM; 24 h; macrophage state: M0 (M-CSF).
Experimental: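 Primary human monocyte-derived macrophages (M-CSF differentiated, pooled from 4 donors, 5000 cells/well in 384-well plates) were treated with each compound at 20 uM for 24 h, then fixed and stained with phalloidin/DAPI and imaged on an Opera Phenix (6 fields, about 1000 cells/well). Cell eccentricity was measured with CellProfiler, and a Z-score (t-test) was computed against 4 DMSO control wells in the same row. Negative values mean round (M1-like) cells and positive values mean elongated (M2-like) cells; the paper's hit cutoffs are Z <= -4 (M1) and Z >= 6 (M2). Scale: negative = round, M1-like.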

Row | Structure (SMILES) | cell shape (Z-score)
1 | C[C@]12CC[C@@H](O)C[C@@H]1CC[C@@H]1[C@@H]2CC[C@]2(C)C(=O)[C@@H](Br)C[C@@H]12 | -2.79
2 | CCC1(CC)C(=O)NC(=O)NC1=O | 8.63
3 | CN1C2C[C@H](OC(=O)[C@H](CO)c3ccccc3)C[C@H]1[C@@H](O)C2 | 0.918
4 | CC(C)=CC1C(C(=O)OCc2coc(Cc3ccccc3)c2)C1(C)C (configuration not stated) | 5.88
5 | Cc1nnc2ccc(-c3cccc(C(F)(F)F)c3)nn12 | -1.12
6 | COc1ccc2c(c1OC)CN1CCc3cc4c(cc3C1C2)OCO4 (configuration not stated) | 3.2
7 | C=CC(C)(C)[C@]12C=C(OC)C(=O)N3/C(=C/c4cnc[nH]4)C(=O)N[C@@]31N(OC)c1ccccc12 | 1.14
8 | CN(C)[C@@H]1C(=O)C(C(N)=O)C(=O)[C@@]2(O)C(=O)C3C(=O)c4c(O)cccc4[C@@](C)(O)C3[C@H](O)C12 (some centres not stated) | -0.752
9 | CC(N)Cn1ccc2cc(F)c(Cl)cc21 (configuration not stated) | 0.211
10 | COc1ccc(CCN2CCC(Nc3nc4ccccc4n3Cc3ccc(F)cc3)CC2)cc1 | 0.69
11 | CCCN1C[C@H](CSC)C[C@@H]2c3cccc4[nH]cc(c34)C[C@H]21 | -0.369
12 | C[N+]1(C)CCc2cc3c(cc2C1[C@@H]1OC(=O)c2c1ccc1c2OCO1)OCO3 (some centres not stated) | 2.95
13 | O=C1Nc2cc(Cl)c(Cl)cc2N2CCNCC12 (configuration not stated) | 2.26
14 | C[C@H]1O[C@@H](O[C@H]2CC[C@]3(CO)C4CC[C@]5(C)[C@@H](C6=CC(=O)OC6)CC[C@]5(O)[C@@H]4CC[C@H]3C2)[C@H](O)[C@H](O)[C@@H]1O[C@@H]1O[C@H](CO)[C@@H](O)[C@H](O)[C@H]1O (some centres not stated) | -6
15 | Ic1cncc(OC[C@@H]2CCN2)c1 | -2.82
16 | Clc1ccc(N2CCN(Cc3c[nH]c4ncccc34)CC2)cc1 | -2.74
17 | CCC(=O)CCCCC[C@@H]1NC(=O)[C@H]2CCCCN2C(=O)[C@H]([C@H](C)CC)NC(=O)[C@H](Cc2cn(OC)c3ccccc23)NC1=O | 13.4
18 | Cc1ccc2c(c1)Cc1c(C(=O)NN3CCCCC3)nn(-c3ccc(Cl)cc3Cl)c1-2 | 2.07
19 | CN1C2CCC1CC(OC(c1ccc(F)cc1)c1ccc(F)cc1)C2 (configuration not stated) | 2.94
20 | C=CC(C)(C)[C@@]12C[C@H]3C(=O)N/C(=C\c4cnc[nH]4)C(=O)N3[C@@H]1Nc1ccccc12 | -3.18
21 | C[C@]12[C@H](O)CC3C(CC[C@@H]4C[C@@H](O)CC[C@]34C)[C@@]1(O)CC[C@@H]2C1=CC(=O)OC1 (some centres not stated) | -0.702
22 | CCC1(CC)C(=O)C=CNC1=O | 3.86
23 | COc1cc(N)c(Cl)cc1C(=O)NC1CN2CCC1CC2 (configuration not stated) | 1.5 and 3.06
24 | COc1ccc2c(c1O)-c1c(OC)c(OC)cc3c1[C@H](C2)N(C)CC3 | 1.61
25 | Oc1ccc2c3c1OC1c4oc5ccccc5c4CC4(O)C(C2)N(CC2CC2)CCC314 (configuration not stated) | 2.92

Row | Structure (SMILES) | cell shape (Z-score)
26 | CCC1C(C)=NN=C(c2ccc(OC)c(OC)c2)c2cc(OC)c(OC)cc21 (configuration not stated) | 2.3
27 | CCN1C[C@]2(C)CC[C@H](O)[C@@]34C2[C@H](OC)C([C@@H]13)[C@@]1(O)C[C@H](OC)[C@H]2C[C@@H]4[C@@H]1[C@H]2O | -1.42 ± 3.7
28 | COc1ccc(C(=O)O)cc1OC | 1.09
29 | NC(=O)OCCCc1ccccc1 | -0.0339
30 | COc1cc2c(c(OC)c1OC)-c1ccc(OC)c(=O)cc1[C@@H](NC(C)=O)CC2 | 8.06
31 | CN1CC(C(=O)NC2(C)OC3(O)C4CCCN4C(=O)C(Cc4ccccc4)N3C2=O)CC2c3cccc4[nH]cc(c34)CC21 (configuration not stated) | 2.08
32 | COC(=O)NC(=S)Nc1ccccc1NC(=S)NC(=O)OC | -0.862
33 | CCOC(=O)c1c(C(C#N)=CN)c2ccc(Cl)c(Cl)c2n1C | -1.1
34 | CO[C@H]1[C@H](O)[C@@H](O[C@H]2CC[C@]3(C=O)C4CC[C@]5(C)[C@@H](C6=CC(=O)OC6)CC[C@]5(O)C4CC[C@@H]3C2)O[C@@H](C)[C@@H]1O (some centres not stated) | -0.177
35 | CC1(C)C(=O)[C@@H]2O[C@@H]2[C@@]2(C)C1C[C@@H](O)[C@]1(C)C2CC[C@@]2(C)[C@H](c3ccoc3)OC(=O)C3OC321 (some centres not stated) | -2.76
36 | CN1CCCCC1c1ccc(-c2cccnc2)nc1 (configuration not stated) | 1.81
37 | CS(=O)(=O)Nc1ccc(Cc2noc(-c3ccc4[nH]cc(CCN)c4c3)n2)cc1 | 1.96
38 | CCC1CN2CCC3(C(=O)Nc4cccc(O)c43)C2CC1/C(=C/OC)C(=O)OC (configuration not stated) | -0.148
39 | C=C[C@H]1C[N@@]2CC[C@H]1C[C@@H]2[C@@H](OC(=O)OCC)c1ccnc2ccc(OC)cc12 | 2.6
40 | C[C@]12CCC(=O)C=C1CCC1C2CC[C@@]2(C)C1CC[C@H]2O (some centres not stated) | 2.55
41 | C/C=C\C(C)=C\[C@H](C)C(=O)C[C@H](O)CC1CC(=O)NC(=O)C1 | -0.473
42 | CC(C)[C@]12O[C@H]1[C@@H]1O[C@]13[C@]1(O[C@H]1CC1C4=C(CC[C@@]13C)C(=O)OC4)[C@@H]2O (some centres not stated) | 8.48
43 | COc1ccc(CNC(=O)C=Cc2ccc3[nH]cc(CCN(C)C)c3c2)cc1 | 0.181
44 | COc1ccccc1N1CCNCC1 | 1.68
45 | COc1ccc(-n2nc(C(F)(F)F)cc2-c2ccc(Cl)cc2)cc1 | 1.25
46 | CCN1C[C@]2(COC)CCC(OC)[C@@]34C5C[C@@]6(O)[C@H](OC(=O)c7ccc(OC)cc7)C5[C@@](OC(C)=O)(C[C@H]6OC)[C@@H]([C@H](OC)C23)[C@@H]14 (some centres not stated) | 6.7
47 | C=CCN1C[C@H](C)N([C@@H](c2ccccc2)c2ccc(C(=O)N(CC)CC)cc2)C[C@H]1C | -3.15
48 | FC(F)(F)c1cccc(C2=CCN(CCc3ccc4ccccc4c3)CC2)c1 | 3.06
49 | CC(C)[C@@]1(NC(=O)[C@@H]2CC3c4cccc5[nH]cc(c45)C[C@H]3N(C)C2)O[C@@]2(O)[C@@H]3CCCN3C(=O)[C@H](Cc3ccccc3)N2C1=O (some centres not stated) | 2.78
50 | COc1ccc2c(c1)[C@]13CCCC[C@H]1[C@H](C2)N(C)CC3 | 2.66

Row | Structure (SMILES) | cell shape (Z-score)
51 | CCCCCCCCCCCCCCCC[n+]1ccccc1 | 0.864
52 | COc1cc2c(cc1O)C1Cc3ccc(OC)c(O)c3CN1CC2 (configuration not stated) | 1.71
53 | CCOP(=S)(OCC)Oc1nc(Cl)c(Cl)cc1Cl | 1.76
54 | CCCC1CC2=CC(=O)CCC2(C)C2CCC3(C)C(CCC3(O)CCC(=O)O)C12 (configuration not stated) | 2.52
55 | COc1cc2c(cc1O)CC1c3c(cc(O)c(OC)c3-2)CCN1C (configuration not stated) | -0.0666
56 | CC(C)CCCC1(C)C=Cc2c(O)c3c(c(CCC(C)C)c2O1)OC12C(CC4CC1C(C)(C)OC2(CCC(C)C(=O)O)C4O)C3=O (configuration not stated) | 2.8
57 | COC(/C=C/CC/C=C/C(=O)O)C(O)C(C)C(O)/C(C)=C/C(C)C(=O)CCCC1CC(=O)NC(=O)C1 (configuration not stated) | 0.215 ± 1.7
58 | CCCN[C@@H]1CCc2c(OC)cccc2[C@@H]1C | 0.584
59 | CC(C)(C)CC(C)(C)c1ccc(O)cc1 | -0.489
60 | Cc1c([N+](=O)[O-])oc2ccc3ccccc3c12 | -0.364
61 | CC[C@@]1(O)C[C@H](O)c2c(cc3c(c2O)C(=O)c2c(O)ccc(O)c2C3=O)[C@H]1C(=O)OC | 0.319
62 | NC(=O)CS(=O)C(c1ccccc1)c1ccccc1 (configuration not stated) | 1.55
63 | N#CC(C#N)Cc1ccc(O)cc1 | 1.59
64 | CC12C(=O)OC(=O)C1(C)C1CCC2O1 (configuration not stated) | -12.8
65 | CCC(CO)NC(=O)C1C=C2c3cccc4[nH]cc(c34)CC2N(C)C1 (configuration not stated) | 3.27
66 | CC(C)c1c(CN(C)C(C)Cc2ccccc2)n(C)n(-c2ccccc2)c1=O (configuration not stated) | 2.2
67 | CC(=O)NC1CCSC1=O (configuration not stated) | -0.846
68 | CC[C@@H](CO)NC(=O)[C@@H]1C=C2c3cccc4[nH]cc(c34)C[C@H]2N(C)C1 | 1.3
69 | CNC(C)(C)Cc1ccccc1 | 1.46
70 | CN1C(=O)CCS(=O)(=O)C1c1ccc(Cl)cc1 (configuration not stated) | 1.93
71 | CCn1cc(C(=O)O)c(=O)c2cc3c(cc21)OCO3 | 14.7
72 | Cc1c(C(=O)c2cccc3ccccc23)c2cccc3c2n1[C@H](CN1CCOCC1)CO3 | -5.15
73 | C[C@@H]1CC[C@H]2[C@@H](C)C(=O)O[C@@H]3O[C@@]4(C)CC[C@@H]1[C@]32OO4 | 3.6
74 | CN1C(=O)c2ccccc2NC(=O)C1Cc1ccccc1 (configuration not stated) | 2.63
75 | O=c1c2ccccc2[se]n1-c1ccccc1 | 4.17

Row | Structure (SMILES) | cell shape (Z-score)
76 | Cc1ncc(CN2CC=C(c3ccccc3)CC2)c(N)n1 | 1.64
77 | CC(C)C1(NC(=O)C2CC3c4cccc5[nH]cc(c45)CC3N(C)C2)OC2(O)C3CCCN3C(=O)C(Cc3ccccc3)N2C1=O (configuration not stated) | 3.08
78 | CCC(CO)NC(=O)C1C=C2c3cccc4c3c(cn4C)CC2N(C)C1 (configuration not stated) | 1.21
79 | Clc1cccc(SC2CCNCC2)n1 | -1.72
80 | N#Cc1c(Oc2cccc(OS(=O)(=O)CCCC(F)(F)F)c2)cccc1C(F)(F)F | 1.75
81 | CC[C@H]1CN2CCC1C[C@@H]2[C@H](O)c1ccnc2ccc(OC)cc12 (some centres not stated) | -0.0446
82 | NP(N)(=O)NC(=O)c1ccc(F)cc1 | 1.35
83 | CC(C)(N)Cc1ccccc1 | 1.48
84 | CCOC(=O)c1ncc2[nH]c3ccc(OCc4ccccc4)cc3c2c1COC | -0.571
85 | C[C@]12CCC3C(CC[C@H]4CC(=O)CC[C@]34C)C1CCC2=O (some centres not stated) | -2.01
86 | CCCN1CCCC2Cc3n[nH]cc3CC21 (configuration not stated) | 3.76
87 | CCNCC(O)c1cccc(O)c1 (configuration not stated) | -0.645
88 | CC(=O)O[C@@H]1C[C@@]2(C)[C@H](c3ccoc3)C[C@H]3O[C@]32[C@]2(C)C(=O)C(=O)C3C(C)(C)C(=O)C=C[C@]3(C)C12 (some centres not stated) | -3.62
89 | CC(C)NCC(O)c1ccccc1Cl (configuration not stated) | 0.72
90 | CC(=O)NCCc1c[nH]c2ccccc12 | 0.144
91 | C=C[C@H]1C[N@@]2CC[C@H]1C[C@@H]2[C@H](O)c1ccnc2ccccc12 | 0.0426
92 | C[C@@H]1CC[C@H]2[C@@H](C)C(=O)O[C@@H]3O[C@]4(C)CC[C@@H]1[C@]32OO4 | 0.573
93 | O=c1ccc2[nH]cc(C3=CCNCC3)c2[nH]1 | 1.74
94 | N#CC(C#N)=Cc1ccc([N+](=O)[O-])c(O)c1 | 1.9
95 | Cc1c(C(=O)c2cccc3ccccc23)c2cccc3c2n1[C@@H](CN1CCOCC1)CO3 | 3.85
96 | O=C1CSC(c2ccccc2Cl)c2cc(Cl)ccc2N1 (configuration not stated) | 1.77
97 | Cc1c2ccncc2c(C)c2c1[nH]c1ccccc12 | 3.64
